Measured values from paper PMC11055677.

Assays:
Assay in all cases: affinity purification with mass spectrometry; FLAG-HA tandem purification from high-salt (400 mM KCl) nuclear extracts of HeLa S3 stably expressing the FH-tagged bait, dialysed to KETNG150; eluate analysed by mass spectrometry; empty vector as control
[1] = target: T1, FLAG-HA-C1orf109, stably expressed in HeLa S3 (human) (UniProt Q9NX04)
T1 sequence: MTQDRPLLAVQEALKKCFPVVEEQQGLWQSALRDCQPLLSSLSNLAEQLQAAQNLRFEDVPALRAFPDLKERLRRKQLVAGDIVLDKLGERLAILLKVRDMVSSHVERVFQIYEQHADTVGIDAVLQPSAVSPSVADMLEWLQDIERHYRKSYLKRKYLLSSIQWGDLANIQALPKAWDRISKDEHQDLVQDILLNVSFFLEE

[2] = target: T2, FLAG-HA-CINP, stably expressed in HeLa S3 (human) (UniProt Q9BW66)
T2 sequence: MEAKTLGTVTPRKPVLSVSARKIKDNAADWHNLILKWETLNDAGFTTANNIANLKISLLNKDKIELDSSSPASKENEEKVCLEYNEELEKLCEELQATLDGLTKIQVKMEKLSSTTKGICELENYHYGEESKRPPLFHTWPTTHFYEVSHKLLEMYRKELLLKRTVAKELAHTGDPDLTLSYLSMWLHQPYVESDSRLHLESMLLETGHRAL

[3] = target: T3, FLAG-HA-POLD3, stably expressed in HeLa S3 (human) (UniProt Q15054)
T3 sequence: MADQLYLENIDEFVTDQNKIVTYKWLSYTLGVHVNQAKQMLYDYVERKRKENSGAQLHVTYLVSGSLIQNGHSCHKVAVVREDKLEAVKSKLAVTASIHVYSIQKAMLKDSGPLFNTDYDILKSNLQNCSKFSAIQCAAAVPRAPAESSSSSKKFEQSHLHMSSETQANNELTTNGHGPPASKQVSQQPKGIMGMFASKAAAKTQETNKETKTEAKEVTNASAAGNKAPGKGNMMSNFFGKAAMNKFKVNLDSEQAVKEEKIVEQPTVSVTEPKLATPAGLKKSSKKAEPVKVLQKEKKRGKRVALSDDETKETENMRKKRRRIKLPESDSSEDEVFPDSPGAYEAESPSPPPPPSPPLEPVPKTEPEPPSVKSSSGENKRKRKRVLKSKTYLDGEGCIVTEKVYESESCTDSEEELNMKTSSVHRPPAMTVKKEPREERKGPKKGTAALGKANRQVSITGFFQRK

Measured: binding

B1: SPATA5L1 (HeLa S3 nuclear extract) (enzyme, UniProt Q9BVQ7 1-753)
chain: MAPDSDPFPEGPLLKLLPLDARDRGTQRCRLGPAALHALGARLGSAVKISLPDGGSCLCTAWPRRDGADGFVQLDPLCASPGAAVGASRSRRSLSLNRLLLVPCPPLRRVAVWPVLRERAGAPGARNTAAVLEAAQELLRNRPISLGHVVVAPPGAPGLVAALHIVGGTPSPDPAGLVTPRTRVSLGGEPPSEAQPQPEVPLGGLSEAADSLRELLRLPLRYPRALTALGLAVPRGVLLAGPPGVGKTQLVRAVAREAGAELLAVSAPALQGSRPGETEENVRRVFQRARELASRGPSLLFLDEMDALCPQRGSRAPESRVVAQVLTLLDGASGDREVVVVGATNRPDALDPALRRPGRFDREVVIGTPTLKQRKEILQVITSKMPISSHVDLGLLAEMTVGYVGADLTALCREAAMHALLHSEKNQDNPVIDEIDFLEAFKNIQPSSFRSVIGLMDIKPVDWEEIGGLEDVKLKLKQSIEWPLKFPWEFVRMGLTQPKGVLLYGPPGCAKTTLVRALATSCHCSFVSVSGADLFSPFVGDSEKVLSQIFRQARASTPAILFLDEIDSILGARSASKTGCDVQERVLSVLLNELDGVGLKTIERRGSKSSQQEFQEVFNRSVMIIAATNRPDVLDTALLRPGRLDKIIYIPPPDHKGRLSILKVCTKTMPIGPDVSLENLAAETCFFSGADLRNLCTEAALLALQENGLDATTVKQEHFLKSLKTVKPSLSCKDLALYENLFKKEGFSNVEGI
binds: all assays above

B2: SPATA5 (HeLa S3 nuclear extract) (enzyme, UniProt Q8NB90 1-893)
chain: MSSKKNRKRLNQSAENGSSLPSAASSCAEARAPSAGSDFAATSGTLTVTNLLEKVDDKIPKTFQNSLIHLGLNTMKSANICIGRPVLLTSLNGKQEVYTAWPMAGFPGGKVGLSEMAQKNVGVRPGDAIQVQPLVGAVLQAEEMDVALSDKDMEINEEELTGCILRKLDGKIVLPGNFLYCTFYGRPYKLQVLRVKGADGMILGGPQSDSDTDAQRMAFEQSSMETSSLELSLQLSQLDLEDTQIPTSRSTPYKPIDDRITNKASDVLLDVTQSPGDGSGLMLEEVTGLKCNFESAREGNEQLTEEERLLKFSIGAKCNTDTFYFISSTTRVNFTEIDKNSKEQDNQFKVTYDMIGGLSSQLKAIREIIELPLKQPELFKSYGIPAPRGVLLYGPPGTGKTMIARAVANEVGAYVSVINGPEIISKFYGETEAKLRQIFAEATLRHPSIIFIDELDALCPKREGAQNEVEKRVVASLLTLMDGIGSEVSEGQVLVLGATNRPHALDAALRRPGRFDKEIEIGVPNAQDRLDILQKLLRRVPHLLTEAELLQLANSAHGYVGADLKVLCNEAGLCALRRILKKQPNLPDVKVAGLVKITLKDFLQAMNDIRPSAMREIAIDVPNVSWSDIGGLESIKLKLEQAVEWPLKHPESFIRMGIQPPKGVLLYGPPGCSKTMIAKALANESGLNFLAIKGPELMNKYVGESERAVRETFRKARAVAPSIIFFDELDALAVERGSSLGAGNVADRVLAQLLTEMDGIEQLKDVTILAATNRPDRIDKALMRPGRIDRIIYVPLPDAATRREIFKLQFHSMPVSNEVDLDELILQTDAYSGAEIVAVCREAALLALEEDIQANLIMKRHFTQALSTVTPRIPESLRRFYEDYQEKSGLHTL
binds: all assays above

These are yes or no findings as the source states them, for the method shown. Binding seen in cells or lysates may run through a third protein. A yes stands for co-enrichment or nearness to the bait. Other partners may have been found. Where a sequence is shown, tags or fusion partners need not be part of it.
